Measured values from paper PMC5642548.
Results are given in words; binding and its absence hold for the method and conditions named. Binding seen in cells or lysates may run through a third protein. Some binding calls cover weakened binding; strength is not graded here.

Target: TGIF1 (TGFB induced factor homeobox 1), full length, Flag-tagged (human (cDNA from HEK293T)), Q15583
Experiment: co-IP; HEK293FT cells co-transfected for 48 h; lysate in TNE buffer (20 mM Tris-HCl pH 7.4, 150 mM NaCl, 2 mM EDTA, 1 % Triton X-100); precipitated with anti-Flag antibody and protein A-Sepharose overnight at 4°C; anti-Myc immunoblotting
Conditions: remark: other sources report otherwise

B1: β-catenin, P35222 1-781 (protein)
chain: MATQADLMELDMAMEPDRKAAVSHWQQQSYLDSGIHSGATTTAPSLSGKGNPEEEDVDTSQVLYEWEQGFSQSFTQEQVADIDGQYAMTRAQRVRAAMFPETLDEGMQIPSTQFDAAHPTNVQRLAEPSQMLKHAVVNLINYQDDAELATRAIPELTKLLNDEDQVVVNKAAVMVHQLSKKEASRHAIMRSPQMVSAIVRTMQNTNDVETARCTAGTLHNLSHHREGLLAIFKSGGIPALVKMLGSPVDSVLFYAITTLHNLLLHQEGAKMAVRLAGGLQKMVALLNKTNVKFLAITTDCLQILAYGNQESKLIILASGGPQALVNIMRTYTYEKLLWTTSRVLKVLSVCSSNKPAIVEAGGMQALGLHLTDPSQRLVQNCLWTLRNLSDAATKQEGMEGLLGTLVQLLGSDDINVVTCAAGILSNLTCNNYKNKMMVCQVGGIEALVRTVLRAGDREDITEPAICALRHLTSRHQEAEMAQNAVRLHYGLPVVVKLLHPPSHWPLIKATVGLIRNLALCPANHAPLREQGAIPRLVQLLVRAHQDTQRRTSMGGTQQQFVEGVRMEEIVEGCTGALHILARDVHNRIVIRGLNTIPLFVQLLYSPIENIQRVAAGVLCELAQDKEAAEAIEAEGATAPLTELLHSRNEGVATYAAAVLFRMSEDKPQDYKKRLSVELTSSLFRTEPMAWNETADLGLDIGAQGEPLGYRQDDPSYRSFHSGGYGQDALGMDPMMEHEMGGHHPGADYPVDGLPDLGHAQDLMDGLPPGDSNQLAWFDTDL
For B1, the binding was “binds”.
